{
  "sequences": {"note": "Amino acid sequences for entries named in this document (tags omitted).", "UniProt P04483, whole entry, added parts left off": "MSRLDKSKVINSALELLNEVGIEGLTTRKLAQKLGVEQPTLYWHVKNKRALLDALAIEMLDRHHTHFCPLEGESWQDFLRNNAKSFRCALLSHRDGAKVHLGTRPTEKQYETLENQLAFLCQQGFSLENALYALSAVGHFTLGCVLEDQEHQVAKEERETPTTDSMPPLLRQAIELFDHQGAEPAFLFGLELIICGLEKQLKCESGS"},
  "source": "patent US6713247B1",
  "about": "“Human CNS cell lines and methods of use therefor” (Signal Pharmaceuticials, Inc., priority 1996, dated 2004)",
  "origin": "cited, not measured here",
  "target": "tet-controlled transactivator (tTA) (Escherichia coli, UniProt P04483)",
  "settings": "low, non-toxic concentrations of tet (0.01-1.0 μ/mL); cited from earlier work",
  "note": "For at least one compound, name, drawing or mass did not settle the structure.",
  "data": [
    {"smiles": "CN(C)[C@@H]1C(O)=C(C(N)=O)C(=O)[C@@]2(O)C(O)=C3C(=O)c4c(O)cccc4[C@@](C)(O)[C@H]3C[C@@H]12", "note": "[tetracycline]", "values": [
      {"measurement": "transactivation by tTA", "result": "almost completely abolish transactivation by tTA"}
    ]}
  ]
}
